Consider one substance from paper PMC6656725.

Sequences of proteins named here, by UniProt entry; tags and fusion partners are left off.
UniProt P51532: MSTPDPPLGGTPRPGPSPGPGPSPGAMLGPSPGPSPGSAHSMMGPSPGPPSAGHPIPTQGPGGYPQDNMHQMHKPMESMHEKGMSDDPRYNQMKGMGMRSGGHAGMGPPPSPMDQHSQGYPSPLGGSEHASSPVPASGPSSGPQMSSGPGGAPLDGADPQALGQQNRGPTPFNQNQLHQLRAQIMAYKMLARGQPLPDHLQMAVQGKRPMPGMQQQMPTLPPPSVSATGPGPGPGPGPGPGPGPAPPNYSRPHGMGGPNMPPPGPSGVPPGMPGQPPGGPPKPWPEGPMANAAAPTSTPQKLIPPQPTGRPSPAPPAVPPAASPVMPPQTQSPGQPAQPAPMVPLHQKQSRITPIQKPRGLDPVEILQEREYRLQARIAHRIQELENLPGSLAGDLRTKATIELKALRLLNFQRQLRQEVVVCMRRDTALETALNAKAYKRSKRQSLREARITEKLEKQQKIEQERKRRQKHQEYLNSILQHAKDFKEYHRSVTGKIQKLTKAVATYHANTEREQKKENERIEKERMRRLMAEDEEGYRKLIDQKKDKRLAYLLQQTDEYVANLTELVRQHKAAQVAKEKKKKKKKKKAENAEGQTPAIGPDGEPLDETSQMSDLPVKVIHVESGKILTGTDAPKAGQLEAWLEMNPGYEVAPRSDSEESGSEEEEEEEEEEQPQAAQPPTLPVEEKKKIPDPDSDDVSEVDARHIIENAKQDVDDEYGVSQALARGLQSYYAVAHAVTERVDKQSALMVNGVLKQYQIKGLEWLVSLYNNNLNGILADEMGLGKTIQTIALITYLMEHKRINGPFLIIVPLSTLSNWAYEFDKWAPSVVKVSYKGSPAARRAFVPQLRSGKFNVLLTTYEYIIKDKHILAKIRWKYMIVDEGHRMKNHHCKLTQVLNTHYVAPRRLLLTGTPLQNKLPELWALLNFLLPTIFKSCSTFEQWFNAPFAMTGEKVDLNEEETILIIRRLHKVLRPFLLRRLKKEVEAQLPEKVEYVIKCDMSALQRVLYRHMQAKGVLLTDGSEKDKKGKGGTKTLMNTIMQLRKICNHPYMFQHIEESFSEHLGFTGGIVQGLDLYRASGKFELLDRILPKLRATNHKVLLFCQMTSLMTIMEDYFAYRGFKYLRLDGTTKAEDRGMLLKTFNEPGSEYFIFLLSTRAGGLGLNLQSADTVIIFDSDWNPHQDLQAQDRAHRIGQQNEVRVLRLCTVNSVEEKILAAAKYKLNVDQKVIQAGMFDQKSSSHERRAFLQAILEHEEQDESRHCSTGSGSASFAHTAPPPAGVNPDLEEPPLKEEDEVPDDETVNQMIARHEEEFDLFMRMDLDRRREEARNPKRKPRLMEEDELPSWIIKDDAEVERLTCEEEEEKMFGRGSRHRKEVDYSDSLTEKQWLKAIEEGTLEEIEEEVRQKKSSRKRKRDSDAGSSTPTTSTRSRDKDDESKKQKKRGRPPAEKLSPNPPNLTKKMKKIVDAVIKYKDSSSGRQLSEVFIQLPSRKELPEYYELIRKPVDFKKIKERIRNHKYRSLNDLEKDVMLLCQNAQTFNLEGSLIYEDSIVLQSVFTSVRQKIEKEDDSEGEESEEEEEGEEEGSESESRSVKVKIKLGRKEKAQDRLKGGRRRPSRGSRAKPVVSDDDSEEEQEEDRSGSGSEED

The target of this assay is T1, mEOMES-V5 (mouse EOMES expressed from pcDNA3-mEOMES-V5 in 293 cells) (mouse) (UniProt O54839).
T1 sequence: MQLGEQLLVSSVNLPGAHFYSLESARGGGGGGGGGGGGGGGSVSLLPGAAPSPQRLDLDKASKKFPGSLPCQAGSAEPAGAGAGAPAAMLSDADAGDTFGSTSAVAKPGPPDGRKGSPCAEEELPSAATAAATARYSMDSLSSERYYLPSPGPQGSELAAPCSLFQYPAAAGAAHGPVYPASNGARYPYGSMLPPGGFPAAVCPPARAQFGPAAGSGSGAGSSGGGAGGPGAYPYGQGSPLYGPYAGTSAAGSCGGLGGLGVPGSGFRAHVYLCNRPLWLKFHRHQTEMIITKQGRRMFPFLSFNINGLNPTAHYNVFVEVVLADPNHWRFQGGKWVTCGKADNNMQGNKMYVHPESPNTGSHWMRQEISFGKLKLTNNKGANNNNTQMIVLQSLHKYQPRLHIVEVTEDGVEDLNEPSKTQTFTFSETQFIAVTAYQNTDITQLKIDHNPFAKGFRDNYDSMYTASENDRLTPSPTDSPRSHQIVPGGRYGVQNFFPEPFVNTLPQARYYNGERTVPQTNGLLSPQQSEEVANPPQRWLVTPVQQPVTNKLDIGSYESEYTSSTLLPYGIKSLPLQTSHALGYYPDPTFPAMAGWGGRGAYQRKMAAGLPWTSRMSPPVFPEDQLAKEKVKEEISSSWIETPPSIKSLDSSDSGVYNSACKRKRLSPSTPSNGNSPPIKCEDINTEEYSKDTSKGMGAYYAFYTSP
Briefly: co-IP; lysates of 293 cells transfected with pcDNA3-mEOMES-V5; IP with anti-EOMES or anti-BRG1 overnight at 4 °C, protein G magnetic beads; 50 mM Tris-HCl pH 7.4, 120 mM NaCl, 1 mM EDTA; immunoblot for BRG1 or EOMES.

Results are given in words; binding and its absence hold for the method and conditions named. Binding seen in cells or lysates may run through a third protein. Some results given as binding are weak or reduced against the parent protein; the word gives no strength. Tags and fused reporters may be left off the sequences shown.

Take “BRG1, endogenous, in 293 cells (from UniProt P51532 1-1647)”: the binding result was “binds”.
